# Results: article PMC9731985
# Results are given in words; binding and its absence hold for the method and conditions named. Binding seen in cells or lysates may run through a third protein. Some binding calls cover weakened binding; strength is not graded here.
# Target: FLAG-p62 (human) (UniProt Q13501)
# Assay: co-IP; Hep3B cells transfected with FLAG-p62; lysates immunoprecipitated with an anti-FLAG antibody; immunoblotting with anti-FLAG, anti-Hsc70 and anti-Parkin antibodies
row,Substance,binding
1,endogenous Parkin (from UniProt O60260-1 1-465) (enzyme),binds
2,heat shock cognate 71 kDa protein (Hsc70) (from UniProt P11142-1 1-646),binds
